{"source": "patent US20240261443A1", "about": "“COMPOUNDS AND COMPOSITIONS USEFUL AS RADIOTRACERS FOR IMAGING OF REACTIVE OXIDATIVE SPECIES” (Wake Forest University Health Sciences, priority 2019, published 2024)", "tested_on": "SCC-61, G48, MD3-MB-231 and PC3 cancer cell lines", "test": "MTT assay, potency versus ascorbate across patient-derived cancer cell lines", "format": "cell-based, human", "details": "Example 7; in SCC-61 and PC3 lines", "method": "The cells were seeded at density 5×10^3 cells/well. After 24 h pre-incubation period, cells were treated with 0.01 mM to 2.0 mM of freshly prepared KS1 and KS2 along with ascorbate (n=3) for 48 h. 0.2% of DMSO served as vehicle control. After 48 h, the solutions were removed from all plates and MTT assays performed following the published protocols. IC50 values are presented as mean±SD from at least three independent experiments.\nThere is growing evidence for a therapeutic role of ascorbate against several cancers (Creagan et al., Failure of High-Dose Vitamin C (Ascorbic Acid) Therapy to Benefit Patients with Advanced Cancer. New England Journal of Medicine 1979, 301 (13), 687-690; Chen et al., Pharmacologic ascorbic acid concentrations selectively kill cancer cells: action as a pro-drug to deliver hydrogen peroxide to tissues. Proceedings of the National Academy of Sciences of the United States of America 2005, 102 (38), 13604-13609; Prasad et al., High Doses of Multiple Antioxidant Vitamins: Essential Ingredients in Improving the Efficacy of Standard Cancer Therapy. Journal of the American College of Nutrition 1999, 18 (1), 13-25). […]", "note": "Some of these results come from one statement about several compounds together. For at least one compound, name, drawing or mass did not settle the structure."}
{"smiles": "O=C1O/C(=C/Cc2ccc(OCCF)cc2)C(O)=C1O", "note": "[KS2]", "values": [{"measurement": "selectivity (potency) over ascorbate", "value": "> 5", "unit": "fold"}]}
